The other results are listed elsewhere or left out.
Experiments:
[1] = biological target: T1, POLL_Q9UGP5_73_QIVQHGGQLCPAQGPGVTHIVVDEGMDYER (UniProt Q9UGP5); test: probe-labelled cysteine peptide fold change vs DMSO (competition) (log2 fold change); higher = less target engagement (more negative = stronger competition); conditions: THP-1, incubation time: 4 h
T1 sequence (whole entry): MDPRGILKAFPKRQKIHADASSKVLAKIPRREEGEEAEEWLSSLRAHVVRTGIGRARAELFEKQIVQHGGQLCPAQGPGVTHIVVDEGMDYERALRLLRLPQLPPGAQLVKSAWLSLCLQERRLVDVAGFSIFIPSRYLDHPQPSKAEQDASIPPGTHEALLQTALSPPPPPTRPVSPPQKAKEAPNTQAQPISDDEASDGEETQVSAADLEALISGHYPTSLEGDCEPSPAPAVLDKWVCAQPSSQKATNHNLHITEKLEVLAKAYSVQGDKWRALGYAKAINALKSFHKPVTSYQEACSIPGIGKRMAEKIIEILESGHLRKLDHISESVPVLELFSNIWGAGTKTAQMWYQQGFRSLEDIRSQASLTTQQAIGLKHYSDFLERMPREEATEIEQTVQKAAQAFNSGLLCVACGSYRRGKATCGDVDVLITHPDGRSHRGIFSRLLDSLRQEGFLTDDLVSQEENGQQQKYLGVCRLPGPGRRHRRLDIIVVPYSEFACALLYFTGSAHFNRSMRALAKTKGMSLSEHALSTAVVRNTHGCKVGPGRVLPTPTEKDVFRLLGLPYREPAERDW

[2] = biological target: T2, PPIL2_Q13356_103_YHCPVLFTVFTNNTHIVAVR (UniProt Q13356); test: as above; conditions: THP-1, incubation time: 4 h
T2 sequence (whole entry): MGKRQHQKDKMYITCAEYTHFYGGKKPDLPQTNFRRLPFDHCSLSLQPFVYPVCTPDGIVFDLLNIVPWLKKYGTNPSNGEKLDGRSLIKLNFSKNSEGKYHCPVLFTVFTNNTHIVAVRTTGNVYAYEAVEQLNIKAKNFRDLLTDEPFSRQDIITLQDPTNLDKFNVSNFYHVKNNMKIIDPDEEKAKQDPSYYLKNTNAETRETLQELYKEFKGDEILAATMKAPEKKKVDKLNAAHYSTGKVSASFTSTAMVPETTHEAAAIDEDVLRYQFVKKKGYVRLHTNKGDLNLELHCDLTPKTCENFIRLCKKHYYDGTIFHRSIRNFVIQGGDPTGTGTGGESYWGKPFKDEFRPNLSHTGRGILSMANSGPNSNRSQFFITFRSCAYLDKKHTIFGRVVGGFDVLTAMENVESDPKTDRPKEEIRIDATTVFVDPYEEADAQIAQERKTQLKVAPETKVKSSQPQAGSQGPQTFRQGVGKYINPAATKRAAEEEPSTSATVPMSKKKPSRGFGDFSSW
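Also: competitive profiling in live THP-1 cells: cysteine peptides tagged with an iodoacetamide desthiobiotin (IA-DTB) probe, intensity after compound treatment relative to DMSO-treated cells.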

In the case of `Cc1cc(C(=O)N2CCCN(C(=O)CCl)CC2)ccc1-c1ccccc1` [compound 10], the “probe-labelled cysteine peptide fold change” value ([1]; 10 µM) is reported as 0.296, the “probe-labelled cysteine peptide fold change” value ([1]; 50 µM) is reported as 0.382 and the “probe-labelled cysteine peptide fold change” value ([2]; 10 µM) is reported as -0.148. For the same compound, the “probe-labelled cysteine peptide fold change” value ([2]; 50 µM) was 0.209.
